US11725036B2, “Modified lipidated relaxin B chain peptides and their therapeutic use” (Sanofi, priority 2018, dated 2023)
At least one compound was matched to its structure with a doubt left. Starred links: 1 amine or outer side, 2 acyl side, 3 side chain; linkers in the order of their positions; H or OH if unused. Non-standard residues stand in square brackets, D forms with d. Residues, ends and D or L forms follow the SMILES beside them. Groups on a side chain read outwards from the residue. *: point of attachment. X12 = CCCCCCCCCCCCCCCCCC(=O)N[C@@H](CCC(=O)N[C@@H](CCC(=O)N[C@@H](CCC(=O)N[C@@H](CCC(=O)NCCCOCCOCCOCCCNC(=O)CCC(=O)NCCCOCCOCCOCCCNC(=O)CCC(=O)NCCCOCCOCCOCCCNC(=O)CCC(=O)NCCCOCCOCCOCCCN*)C(=O)O)C(=O)O)C(=O)O)C(=O)O; X1 = CCCCCCCCCCCCCCCC(=O)N[C@@H](CCC(=O)N[C@@H](CCC(=O)N[C@@H](CCC(=O)NCCCOCCOCCOCCCNC(=O)CCC(=O)NCCCOCCOCCOCCCNC(=O)CCC(=O)NCCCOCCOCCOCCCN*)C(=O)O)C(=O)O)C(=O)O; Suc = O=C(CCC(=O)[*:2])[*:1]; Aib = CC(C)(N)C(=O)O

Target: T1, RXFP1 (Homo sapiens, UniProt Q9HBX9)
T1 construct: OVCAR5 cells expressing endogenous RXFP1; endogenous in cells; host or cells: OVCAR5
T1 sequence (Q9HBX9 1-757): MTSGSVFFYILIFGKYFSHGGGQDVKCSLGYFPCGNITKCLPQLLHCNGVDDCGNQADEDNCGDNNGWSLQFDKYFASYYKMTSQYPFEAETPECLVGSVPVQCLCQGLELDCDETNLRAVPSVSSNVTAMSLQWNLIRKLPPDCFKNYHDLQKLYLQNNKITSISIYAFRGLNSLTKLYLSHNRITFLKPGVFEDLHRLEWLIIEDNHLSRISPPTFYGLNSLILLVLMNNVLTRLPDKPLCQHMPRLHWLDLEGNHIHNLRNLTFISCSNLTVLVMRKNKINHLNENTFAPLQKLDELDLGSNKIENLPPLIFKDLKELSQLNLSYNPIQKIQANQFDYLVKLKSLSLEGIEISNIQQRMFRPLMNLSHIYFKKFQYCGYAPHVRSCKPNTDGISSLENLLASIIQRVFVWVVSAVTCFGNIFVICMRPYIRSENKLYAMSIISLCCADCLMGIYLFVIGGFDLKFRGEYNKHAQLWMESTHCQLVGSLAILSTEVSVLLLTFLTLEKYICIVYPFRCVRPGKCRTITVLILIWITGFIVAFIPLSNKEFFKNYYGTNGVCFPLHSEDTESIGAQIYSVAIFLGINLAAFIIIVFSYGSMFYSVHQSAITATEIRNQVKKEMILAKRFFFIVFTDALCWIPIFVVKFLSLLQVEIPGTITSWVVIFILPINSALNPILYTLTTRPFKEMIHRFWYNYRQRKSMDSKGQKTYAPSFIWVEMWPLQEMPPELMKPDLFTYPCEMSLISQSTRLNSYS
Assay: OVCAR5 cAMP assay (HTRF)
Format: cell-based
Conditions: OVCAR 5 cells expressing endogenous RXFP1, cAMP readout
Excerpt: OVCAR5 cells expressing endogenous RXFP1 were used to test RXP1 agonist properties of peptides of the invention, and in particular of the peptides of sequence SEQ ID NO: 1-97.
Since RXFP1 is a Gs coupled GPCR, cAMP was used as readout of RXFP1 activation.
Isobutyl Methyl Xanthine (IBMX) was used to inhibit phosphodiesterase activity facilitating cAMP measurements. HTRF (Homogenous Time Resolved Fluorescence) technology was used to detect cAMP due to its great sensitivity.
In summary, OVCAR5 were grown in regular medium (RPMI) containing 10% fetal calf serum (FCS) and 1% antibiotics (penicillin/streptomycin).
Before the experiments, cells were detached with accutase and incubated for 40 minutes at 37° C. with 1 mM (3-isobutyl-1-methylxanthine) IBMX.
Cells were then distributed in 384 black well plates containing increasing concentrations of the different peptides in a fix volume of medium (without FCS).
After an incubation of 30 min at 37° C. in an humid incubator in 5% CO2, the reaction was stopped by adding a fixed volume of a solution containing a lysis buffer and cAMP-D2 (cAMP labeled with the dye d2) and the anti cAMP antibody linked to Europium and used for cAMP detection.
Readout of the experiment were performed on a fluorimeter allowing HTRF measurement. Activation curves were generated by plotting the intracellular value of cAMP versus log 10 of the compound concentration.
The 50% activation concentration (EC50) was calculated by nonlinear regression using the sigmoidal dose-response (variable slope) equation with Prism 5 software.
Emax % was determined as the maximal intracellular value of cAMP for test compound (upper limit of cAMP vs concentration curve) divided by the maximal intracellular value of cAMP for H2-relaxin determined in the same test occasion multiplied by 100. Emax %=100×[cAMPtest cpd]/[cAMPH2-Rlx]

EC50 [nM] | Structure (SMILES)
0.19 | CCCCCCCCCCCCCCCC(=O)N[C@@H](CCC(=O)N[C@@H](CCC(=O)N[C@@H](CCC(=O)NCCCOCCOCCOCCCNC(=O)CCC(=O)NCCCOCCOCCOCCCNC(=O)CCC(=O)NCCCOCCOCCOCCCNC(=O)CCC(=O)NCCCC[C@H](NC(=O)CNC(=O)[C@H](CCC(=O)O)NC(=O)C(C)(C)NC(=O)C(C)(C)NC(=O)[C@@H](NC(=O)[C@H](CCCCNC(C)=O)NC(=O)[C@H](C)NC(=O)[C@H](CCCNC(=N)N)NC(=O)[C@@H](NC(=O)[C@H](CCCCN)NC(=O)[C@H](CCC(=O)O)NC(=O)[C@H](CCCNC(=N)N)NC(=O)CNC(=O)[C@H](CCC(=O)O)NC(=O)[C@H](CC(C)C)NC(C)=O)C(C)C)[C@@H](C)CC)C(=O)N[C@@H](CO)C(=O)N[C@H](C(=O)N[C@@H](Cc1c[nH]c2ccccc12)C(=O)N[C@@H](CO)C(=O)NC(C)(C)C(=O)N[C@@H](CCCNC(=N)N)C(=O)N[C@@H](CCCNC(=N)N)C(=O)N[C@@H](CCCCNC(C)=O)C(N)=O)[C@@H](C)O)C(=O)O)C(=O)O)C(=O)O [compound 31] (Ac-LEGREKVRAK(Ac)I[Aib][Aib]EGK([Suc-X1])STWS[Aib]RRK(Ac)-NH2)
0.09 | CCCCCCCCCCCCCCCCCC(=O)N[C@@H](CCC(=O)N[C@@H](CCC(=O)N[C@@H](CCC(=O)N[C@@H](CCC(=O)NCCCOCCOCCOCCCNC(=O)CCC(=O)NCCCOCCOCCOCCCNC(=O)CCC(=O)NCCCOCCOCCOCCCNC(=O)CCC(=O)NCCCOCCOCCOCCCNC(=O)CCC(=O)NCCCC[C@H](NC(=O)CNC(=O)[C@H](CCC(=O)O)NC(=O)C(C)(C)NC(=O)C(C)(C)NC(=O)[C@@H](NC(=O)[C@H](CCCCNC(C)=O)NC(=O)[C@H](C)NC(=O)[C@H](CCCNC(=N)N)NC(=O)[C@@H](NC(=O)[C@H](CCCCN)NC(=O)[C@H](CCC(=O)O)NC(=O)[C@H](CCCNC(=N)N)NC(=O)CNC(=O)[C@H](CCC(=O)O)NC(=O)[C@H](CC(C)C)NC(C)=O)C(C)C)[C@@H](C)CC)C(=O)N[C@@H](CO)C(=O)N[C@H](C(=O)N[C@@H](Cc1c[nH]c2ccccc12)C(=O)N[C@@H](CO)C(=O)NC(C)(C)C(=O)N[C@@H](CCCNC(=N)N)C(=O)N[C@@H](CCCCN)C(=O)N[C@@H](CCCCNC(C)=O)C(N)=O)[C@@H](C)O)C(=O)O)C(=O)O)C(=O)O)C(=O)O [compound 59] (Ac-LEGREKVRAK(Ac)I[Aib][Aib]EGK([Suc-X12])STWS[Aib]RKK(Ac)-NH2)
0.54 | CCCCCCCCCCCCCCCC(=O)N[C@@H](CCC(=O)N[C@@H](CCC(=O)N[C@@H](CCC(=O)NCCCOCCOCCOCCCNC(=O)CCC(=O)NCCCOCCOCCOCCCNC(=O)CCC(=O)NCCCOCCOCCOCCCNC(=O)CCC(=O)NCCCC[C@H](NC(=O)CNC(=O)[C@H](CCC(=O)O)NC(=O)C(C)(C)NC(=O)C(C)(C)NC(=O)[C@@H](NC(=O)[C@H](CCCCNC(C)=O)NC(=O)C(C)(C)NC(=O)[C@H](CCCNC(=N)N)NC(=O)[C@@H](NC(=O)[C@H](CCCCN)NC(=O)[C@H](CCC(=O)O)NC(=O)[C@H](CCCNC(=N)N)NC(=O)CNC(=O)[C@H](CCC(=O)O)NC(=O)[C@H](CC(C)C)NC(C)=O)C(C)C)[C@@H](C)CC)C(=O)N[C@@H](CO)C(=O)N[C@H](C(=O)N[C@@H](Cc1c[nH]c2ccccc12)C(=O)N[C@@H](CO)C(=O)NC(C)(C)C(=O)N[C@@H](CCCNC(=N)N)C(=O)N[C@@H](CCCCN)C(=O)N[C@@H](CCCCNC(C)=O)C(N)=O)[C@@H](C)O)C(=O)O)C(=O)O)C(=O)O [compound 82] (Ac-LEGREKVR[Aib]K(Ac)I[Aib][Aib]EGK([Suc-X1])STWS[Aib]RKK(Ac)-NH2)
